{"source": "PubChem BioAssay AID651640", "about": "(Broad Institute, 2012)", "note": "About 6,000 (1.7%) of roughly 350,000 compounds were called active. Inconclusive results, whose numbers are uncertain, are shown with a selection of clear calls. No stated cut-off is given here; in the data, active means CPE inhibition above about 20% (passing the limit was not always enough); inconclusive means no clear call, values can overlap the other calls; tested in BHK-21 cells.", "data": [{"experiment": "protection of cells from dengue 2 killing – plate reader, single concentration, primary screen (AID 651640);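 further: 0% = median of neutral control wells and 100% = median of positive control wells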", "conditions": "DENV2-infected cells, cytopathic effect rescue, at 9.99 µM, active compounds read high", "values": [{"molecule": "Cc1ccc(S(=O)(=O)N(C)C[C@@H]2Oc3ccc(NC(=O)Cn4cnnn4)cc3C(=O)N([C@@H](C)CO)C[C@@H]2C)cc1", "CPE inhibition": "active: 42.4%"}, {"molecule": "CC1CN(C(=O)COC(=O)c2ccc(Cl)c(N)c2)CC(C)O1", "note": "(configuration not stated)", "CPE inhibition": "inconclusive: 21.3%"}, {"molecule": "C[C@@H]1CN([C@H](C)CO)C(=O)Cc2cc(NC(=O)NC3CCCCC3)ccc2O[C@H]1CN(C)C", "CPE inhibition": "inconclusive: 32.4%"}, {"molecule": "CO[C@@H]1CN(C)C(=O)c2ccc(NS(=O)(=O)C3CCCCC3)cc2OC[C@H](C)NC[C@H]1C", "CPE inhibition": "inactive: -3.84%"}, {"molecule": "CCOc1ccc(NS(=O)(=O)c2cc(C(=O)N3CCC3)ccc2Cl)cc1", "CPE inhibition": "active: 46.8%"}, {"molecule": "C[C@@H]1CCCCO[C@H](CN(C)Cc2ccc(C(F)(F)F)cc2)[C@H](C)CN([C@H](C)CO)C(=O)c2cc(NS(=O)(=O)c3ccc(F)cc3)ccc2O1", "CPE inhibition": "active: 30%"}, {"molecule": "COc1ccc(S(=O)(=O)Nc2ccc3c(c2)C(=O)N([C@@H](C)CO)C[C@H](C)[C@H](CN(C)C(=O)Nc2cccc4ccccc24)OCCCC[C@H](C)O3)cc1", "CPE inhibition": "inactive: -11.5%"}, {"molecule": "CCOC(=O)c1cc2c(=Cc3ccc(N(C)C)cc3)c3ccccc3n2[n+]1C", "CPE inhibition": "active: 34.9%"}, {"molecule": "CC1CCCC(NC(=O)COC(=O)Cc2c[nH]c3ccccc23)C1C", "note": "(configuration not stated)", "CPE inhibition": "inactive: -3.51%"}, {"molecule": "C=CC[C@H](CC(=O)N(CCO)Cc1ccccc1)C(=O)NC[C@H](OC(=O)[C@@H](CC=C)Cc1ccc(F)cc1)c1ccccc1", "CPE inhibition": "inactive: 8.65%"}, {"molecule": "Cc1cc2oc(=O)cc(CN3CCC(C)CC3)c2cc1C", "CPE inhibition": "inactive: 1.62%"}, {"molecule": "OCc1c(Cl)nc2ccccn12", "CPE inhibition": "inactive: -10.5%"}, {"molecule": "c1ccc(COc2cccc(-c3cc4nc(NCCOc5ccccc5)ccn4n3)c2)cc1", "CPE inhibition": "inconclusive: 42.9%"}, {"molecule": "CC(C#N)Sc1ccc(S(=O)(=O)N2CCCC2)cn1", "note": "(configuration not stated)", "CPE inhibition": "inconclusive: 48.5%"}, {"molecule": "Cc1cccc(N(CC(=O)NC(C)(C)C)C(=O)CNC(=O)c2cccs2)c1C", "CPE inhibition": "active: 43.5%"}, {"molecule": "CCN(Cc1nc2cc(Cl)ccc2c(=O)[nH]1)C(=O)c1nn(C)c(=O)c2ccccc12", "CPE inhibition": "inactive: -1.38%"}, {"molecule": "O=C(c1[nH]c(C(F)(F)F)nc1-c1ccccc1)N1CCC(Cc2ccccc2)CC1", "CPE inhibition": "inconclusive: 34.4%"}, {"molecule": "Cc1ccc(S(=O)(=O)N(C)C[C@@H]2OCCCC[C@@H](C)Oc3ccc(NS(=O)(=O)c4ccccc4)cc3C(=O)N([C@@H](C)CO)C[C@@H]2C)cc1", "CPE inhibition": "inactive: 2.46%"}, {"molecule": "O=C(Nc1cccc(F)c1)N1CC(=O)N2[C@H](CO)[C@@H](c3ccc(Br)cc3)[C@H]2C1", "CPE inhibition": "inconclusive: 20.7%"}, {"molecule": "Cc1ccccc1S(=O)(=O)N1[C@H](C#N)[C@H](c2ccccc2)[C@@H]1CO", "CPE inhibition": "active: 119%"}, {"molecule": "OCc1nc2ccccc2n1CCCc1ccccc1", "CPE inhibition": "inconclusive: 37.8%"}, {"molecule": "O=C1NC2(CCCCC2)N(C(=O)c2ccccc2)C2=C1CCCC2", "CPE inhibition": "inconclusive: 41.4%"}, {"molecule": "COC(=O)c1cccc(-c2ccc(C(c3c(C)[nH][nH]c3=O)c3c(C)[nH][nH]c3=O)o2)c1", "CPE inhibition": "inactive: -3.22%"}, {"molecule": "Cn1cccc1/C=C1/SC(=S)N(CC(=O)O)C1=O", "CPE inhibition": "inconclusive: 63.5%"}, {"molecule": "CNC[C@@H]1Oc2ccc(NC(=O)Nc3ccc(C(F)(F)F)cc3)cc2C(=O)N([C@H](C)CO)C[C@H]1C", "CPE inhibition": "inactive: -4.5%"}, {"molecule": "O=CN1CCN(S(=O)(=O)c2ccc(Cl)c(C(=O)O)c2)CC1", "CPE inhibition": "inactive: -3%"}, {"molecule": "COc1ccc(CNC(=O)CN(Cc2ccco2)C(=O)CCC(=O)Nc2ccccn2)cc1", "CPE inhibition": "inconclusive: 24.2%"}, {"molecule": "COc1ccc(S(=O)(=O)N(C)C[C@@H]2Oc3c(NC(=O)C4CCCCC4)cccc3C(=O)N([C@H](C)CO)C[C@@H]2C)cc1", "CPE inhibition": "active: 20.4%"}, {"molecule": "CCOC(=O)c1cnc2ccc(C)cc2c1NCCN1CCOCC1", "CPE inhibition": "inconclusive: 28.1%"}, {"molecule": "CCC(=O)Nc1ccc2c(c1)C(=O)N(C)[C@@H]1CC[C@@H](CC(=O)NCCCN(C)C)O[C@H]1CO2", "CPE inhibition": "inconclusive: 23.5%"}, {"molecule": "CS(=O)(=O)N1[C@H](CO)[C@@H](c2ccccc2)C12CN(C(=O)c1ccccc1F)C2", "CPE inhibition": "inactive: 1.72%"}, {"molecule": "O=S(=O)(c1ccc(F)cc1)N1CC[C@H]2[C@H](CO)Nc3ccc(-c4ccccc4F)cc3[C@H]21", "CPE inhibition": "active: 42.8%"}, {"molecule": "COc1ccc(C(=O)c2[nH]c(N)c(C(=O)NCCc3c[nH]c4ccccc34)c2-c2ccccc2Br)cc1", "CPE inhibition": "inconclusive: 23.6%"}, {"molecule": "COc1ccc(-c2ccc([C@H]3[C@H](C#N)N[C@H]3CO)cc2)cc1", "CPE inhibition": "inactive: -8.18%"}, {"molecule": "Cc1ccc(S(=O)(=O)N[C@H]2C=C[C@@H](CC(=O)NC3CCCCC3)O[C@H]2CO)cc1", "CPE inhibition": "inactive: 3.27%"}, {"molecule": "COc1ccc(C(=O)Nc2ccccn2)cc1S(=O)(=O)N1CCOCC1", "CPE inhibition": "inactive: -6.78%"}, {"molecule": "CCc1ccccc1NC(=O)CN(C)C(=O)COC(=O)c1c(Cl)cccc1Cl", "CPE inhibition": "inconclusive: 20%"}, {"molecule": "COc1ccc(/C=N/NC(=S)Nc2ccccc2[N+](=O)[O-])cc1O", "CPE inhibition": "inactive: -1.05%"}, {"molecule": "C[C@H](CO)N1C[C@H](C)[C@H](CN(C)Cc2ccc(Cl)c(Cl)c2)Oc2ccc(NC(=O)Nc3ccccc3)cc2CC1=O", "CPE inhibition": "inactive: -8.31%"}, {"molecule": "COc1ccc(S(=O)(=O)N(C)C[C@H]2OCCCC[C@H](C)Oc3ccc(NC(=O)CCCN(C)C)cc3C(=O)N([C@H](C)CO)C[C@H]2C)cc1", "CPE inhibition": "active: 38.2%"}, {"molecule": "CN(CCc1ccccc1)C(=O)c1cccc(NC(=O)Cc2cccc(NC(=O)C3CCN(C(=O)c4ccccc4)CC3)c2)c1", "CPE inhibition": "inconclusive: 24.7%"}, {"molecule": "COC(=O)/C=C1\\Nc2ccc(Cl)cc2C(=O)NC1=O", "CPE inhibition": "inconclusive: 20.1%"}, {"molecule": "CCOC(=O)N1CCN(S(=O)(=O)c2ccc(OCC)cc2)CC1", "CPE inhibition": "inconclusive: 38.3%"}, {"molecule": "COc1ccc(-c2c(-c3ccccc3OC)sc3ccccc23)cc1F", "CPE inhibition": "inconclusive: 48.2%"}, {"molecule": "COc1ccc2c3c(n(C)c2c1)[C@H](CO)N(C(=O)c1ccc(F)cc1)CC31CCN(CC2CCOCC2)CC1", "CPE inhibition": "inactive: -10.5%"}, {"molecule": "O=C(C1CCCCC1)N1CC2(C1)[C@@H](c1ccccc1)[C@@H](CO)N2Cc1ccccc1F", "CPE inhibition": "active: 32%"}, {"molecule": "O=C(Nc1ccc(Oc2ccc(Cl)cc2)c(Cl)c1)c1cc(I)cc(I)c1O", "CPE inhibition": "active: 42.8%"}]}]}
